Test results taken from PMC4413894.
Substitutions are numbered along the chain they refer to. Results are given in words; binding and its absence hold for the method and conditions named. Binding seen in cells or lysates may run through a third protein. Some entries that bind do so weakly or less than the wild type. Sequences can lack the tags named with a protein.

By UniProt entry, the sequences of proteins in these tests, tags left out.
UniProt Q9NRC8: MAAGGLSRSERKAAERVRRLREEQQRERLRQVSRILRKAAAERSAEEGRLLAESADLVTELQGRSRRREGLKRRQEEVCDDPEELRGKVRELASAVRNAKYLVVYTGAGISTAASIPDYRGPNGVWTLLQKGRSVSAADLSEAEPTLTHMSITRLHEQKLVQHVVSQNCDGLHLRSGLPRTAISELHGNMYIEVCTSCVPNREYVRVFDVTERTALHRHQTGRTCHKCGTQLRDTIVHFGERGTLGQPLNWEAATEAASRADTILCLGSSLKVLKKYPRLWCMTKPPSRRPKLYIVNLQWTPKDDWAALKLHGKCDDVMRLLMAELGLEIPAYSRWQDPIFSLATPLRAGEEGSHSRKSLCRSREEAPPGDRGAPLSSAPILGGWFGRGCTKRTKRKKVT

Key:
Flag-tagged SIRT1 WT = target: T1, Flag-tagged SIRT1 WT (UniProt Q923E4); test: co-IP; Flag co-immunoprecipitation from cell lysate with ANTI-FLAG M2 affinity gel, western blot
T1 sequence: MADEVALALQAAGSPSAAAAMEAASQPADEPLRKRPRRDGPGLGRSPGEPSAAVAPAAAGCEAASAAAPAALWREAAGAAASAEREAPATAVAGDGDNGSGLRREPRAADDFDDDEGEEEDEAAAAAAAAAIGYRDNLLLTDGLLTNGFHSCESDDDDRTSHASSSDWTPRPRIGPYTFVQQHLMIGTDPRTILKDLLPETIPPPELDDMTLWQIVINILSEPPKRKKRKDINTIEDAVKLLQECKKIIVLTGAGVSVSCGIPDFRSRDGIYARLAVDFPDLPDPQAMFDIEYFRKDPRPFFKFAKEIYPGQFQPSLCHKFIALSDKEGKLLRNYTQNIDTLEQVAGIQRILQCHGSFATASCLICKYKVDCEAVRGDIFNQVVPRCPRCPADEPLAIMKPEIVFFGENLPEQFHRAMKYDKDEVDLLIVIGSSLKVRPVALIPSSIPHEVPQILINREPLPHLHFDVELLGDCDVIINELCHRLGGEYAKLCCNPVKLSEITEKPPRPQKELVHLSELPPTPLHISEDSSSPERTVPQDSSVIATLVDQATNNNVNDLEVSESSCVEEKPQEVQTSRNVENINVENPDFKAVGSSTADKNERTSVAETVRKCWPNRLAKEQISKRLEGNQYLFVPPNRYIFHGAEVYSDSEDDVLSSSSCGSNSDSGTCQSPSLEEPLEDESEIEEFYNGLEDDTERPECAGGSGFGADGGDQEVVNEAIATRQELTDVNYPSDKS

[1] = target: T2, Flag-tagged SIRT1 H355Y mutant (UniProt Q923E4); test: as above
T2 sequence: T1 sequence with H355Y

binding (Flag-tagged SIRT1 WT): binds
binding [1]: binds
Substance: endogenous SIRT7 (from UniProt Q9NRC8 1-400)
